This passage reports binding results from paper PMC8389370.

Results are given in words; binding and its absence hold for the method and conditions named. Binding seen in cells or lysates may run through a third protein. For part of these data: A result given as binding can be weak or reduced; the word gives no strength.

Common to all, as to assay: co-IP; HEK293T cells transfected with GFP-tagged bait, lysed 24 h post-transfection, captured on GFP affinity resin (GFP-TRAP), SDS-PAGE and immunoblot of endogenous partners
Background: In western blotting, separated proteins are transferred to a membrane and probed.

The target in assay [1] is pUL21 C-terminal domain, GFP attached to the carboxy terminus (HSV-1 strain KOS).
Assay [2] addresses pORF38-GFP, the VZV homologue of pUL21 with a C-terminal GFP tag (varicella-zoster virus isolate HJ0).
In assay [3] the target is pUL21 C-terminal domain, GFP fused to the start of the domain (HSV-1 strain KOS).

B1: ceramide-transport protein CERT, endogenous (protein, UniProt Q9Y5P4 1-624)
chain: MSDNQSWNSSGSEEDPETESGPPVERCGVLSKWTNYIHGWQDRWVVLKNNALSYYKSEDETEYGCRGSICLSKAVITPHDFDECRFDISVNDSVWYLRAQDPDHRQQWIDAIEQHKTESGYGSESSLRRHGSMVSLVSGASGYSATSTSSFKKGHSLREKLAEMETFRDILCRQVDTLQKYFDACADAVSKDELQRDKVVEDDEDDFPTTRSDGDFLHSTNGNKEKLFPHVTPKGINGIDFKGEAITFKATTAGILATLSHCIELMVKREDSWQKRLDKETEKKRRTEEAYKNAMTELKKKSHFGGPDYEEGPNSLINEEEFFDAVEAALDRQDKIEEQSQSEKVRLHWPTSLPSGDAFSSVGTHRFVQKPYSRSSSMSSIDLVSASDDVHRFSSQVEEMVQNHMTYSLQDVGGDANWQLVVEEGEMKVYRREVEENGIVLDPLKATHAVKGVTGHEVCNYFWNVDVRNDWETTIENFHVVETLADNAIIIYQTHKRVWPASQRDVLYLSVIRKIPALTENDPETWIVCNFSVDHDSAPLNNRCVRAKINVAMICQTLVSPPEGNQEISRDNILCKITYVANVNPGGWAPASVLRAVAKREYPKFLKRFTSYVQEKTAGKPILF
For the molecule B1, the binding entry in assay [1] was “binds”; in assay [2] it was “no binding”; in assay [3] it was “no binding”.
